Results are given in words; binding and its absence hold for the method and conditions named. Sequences can lack the tags named with a protein.
Legend:
[1] = target: T1, GST-PRD^trunc2 (mouse dynamin-1 PRD aa747-780 fused to GST) (mouse) (UniProt P39053); experiment: pull-down; GST-PRD baits on GST SpinTrap resin, purified pacsin-1 prey 2 h at 4°C; 25 mM Tris-Cl pH 7.5, 100 mM NaCl; eluted with 10 mM glutathione; SDS-PAGE and Coomassie staining; both purified
T1 sequence: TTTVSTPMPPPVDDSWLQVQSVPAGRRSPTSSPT

Amino acid sequences for entries named in this document (tags omitted). A change or cut given only in a name is not applied to a line headed by its entry.
UniProt Q9BY11: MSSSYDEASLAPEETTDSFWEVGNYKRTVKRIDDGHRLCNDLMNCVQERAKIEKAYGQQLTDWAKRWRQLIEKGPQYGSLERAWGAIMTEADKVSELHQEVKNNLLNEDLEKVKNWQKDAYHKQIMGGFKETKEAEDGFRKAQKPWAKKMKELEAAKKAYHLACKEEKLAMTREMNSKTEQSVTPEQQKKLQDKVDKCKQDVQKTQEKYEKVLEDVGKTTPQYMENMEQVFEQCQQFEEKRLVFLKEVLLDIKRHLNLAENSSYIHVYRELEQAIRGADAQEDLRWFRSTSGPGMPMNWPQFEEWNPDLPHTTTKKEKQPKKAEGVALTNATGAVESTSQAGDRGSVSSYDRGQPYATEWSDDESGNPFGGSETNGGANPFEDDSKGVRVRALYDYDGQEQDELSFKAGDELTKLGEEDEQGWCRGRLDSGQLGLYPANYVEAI

[2] = target: T2, Mouse dynamin-1 proline-rich domain (residues 747-842) fused to GST (mouse) (UniProt P39053); experiment: SEC; pacsin-1 (40 µM) and GST-PRD (80 µM) incubated for 15 min, then size-exclusion chromatography; fractions analysed by SDS-PAGE and Coomassie staining; both purified
T2 sequence: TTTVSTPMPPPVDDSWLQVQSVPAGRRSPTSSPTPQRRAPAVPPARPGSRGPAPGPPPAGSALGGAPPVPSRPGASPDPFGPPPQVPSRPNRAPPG

Row | binding [1] | binding [2] | Substance
1 | no binding |  | Human full-length pacsin-1 (from UniProt Q9BY11 1-444)
2 |  | no binding | Human pacsin-1 with the single-point mutation P437L in the SH3 domain (from UniProt Q9BY11 1-444)
